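Malaria parasite (P. falciparum) lines kept in red blood cells; parasite DNA is measured by SYBR Green fluorescence after lysis, 72 h after compound addition.
Each compound was titrated across a series from about 0.000037 to 29 µM.
The number is the fitted AC50, the concentration giving a half-maximal change in signal; a lower value means higher potency, whether the curve shows a decrease or an increase.
Calls follow the curve class and fit quality: every row here is inconclusive, covering signal-raising curves and weak, poorly fitted, partial or highest-dose-only inhibition curves.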

Values are in nM.
Every entry below has the call inconclusive.
These entries are mostly ones the record files as inconclusive; other results of the assay are not listed here.
A potency from a partial, single-point or poor curve is only a rough figure.
Some entries filed as inconclusive have a full curve.
The first word of each remark tells which way the curve ran; it can be opposite to the aim of the assay.

{"compound": "O=[As]O[As]=O", "stereo": "stereo unspecified", "setting": "PC49", "potency (nM)": "11220", "curve": "inhibitor, single point"}
{"compound": "O=[As]O[As]=O", "stereo": "stereo unspecified", "setting": "CP266", "potency (nM)": "15101", "curve": "inhibitor, single point"}
{"compound": "O=[As]O[As]=O", "stereo": "stereo unspecified", "setting": "DIV17", "potency (nM)": "16944", "curve": "inhibitor, single point"}
{"compound": "O=[As]O[As]=O", "stereo": "stereo unspecified", "setting": "CP185", "potency (nM)": "11220", "curve": "inhibitor, single point"}
{"compound": "COc1ccc(/C=C/C(=O)Nc2ccccc2C(=O)O)cc1OC", "setting": "DIV30", "potency (nM)": "21331", "curve": "inhibitor, partial curve, poor fit"}
{"compound": "COc1ccc(/C=C/C(=O)Nc2ccccc2C(=O)O)cc1OC", "setting": "7G8", "potency (nM)": "11220", "curve": "inhibitor, partial curve"}
{"compound": "COc1ccc(/C=C/C(=O)Nc2ccccc2C(=O)O)cc1OC", "setting": "PC15", "potency (nM)": "2818", "curve": "inhibitor, single point"}
{"compound": "COc1ccc(/C=C/C(=O)Nc2ccccc2C(=O)O)cc1OC", "setting": "W2", "potency (nM)": "4256", "curve": "inhibitor, partial curve, poor fit"}
{"compound": "COc1ccc(/C=C/C(=O)Nc2ccccc2C(=O)O)cc1OC", "setting": "GB4", "potency (nM)": "21331", "curve": "inhibitor, partial curve, poor fit"}
{"compound": "NCCO/C=C/[C@H](N)C(=O)O", "setting": "CP266", "potency (nM)": "19", "curve": "activator, full curve, poor fit"}
{"compound": "NCCO/C=C/[C@H](N)C(=O)O", "setting": "CP325", "potency (nM)": "15101", "curve": "activator, partial curve, poor fit"}
{"compound": "Cc1ccc(/C=C2/C(=O)C3(C)CCC2C3(C)C)cc1", "stereo": "stereo unspecified", "setting": "CP297", "potency (nM)": "19", "curve": "inhibitor, full curve, poor fit"}
{"compound": "Cc1ccc(/C=C2/C(=O)C3(C)CCC2C3(C)C)cc1", "stereo": "stereo unspecified", "setting": "W2", "potency (nM)": "19011", "curve": "inhibitor, partial curve, poor fit"}
{"compound": "Cc1ccc(/C=C2/C(=O)C3(C)CCC2C3(C)C)cc1", "stereo": "stereo unspecified", "setting": "CP335", "potency (nM)": "11995", "curve": "inhibitor, single point"}
{"compound": "C[C@H]1O[C@@H](O[C@H]2[C@@H](O)C[C@H](O[C@H]3[C@@H](O)C[C@H](O[C@H]4CC[C@@]5(C)[C@H](CC[C@@H]6[C@@H]5C[C@@H](O)[C@]5(C)[C@@H](C7=CC(=O)OC7)CC[C@]65O)C4)O[C@@H]3C)O[C@@H]2C)C[C@H](O)[C@@H]1O", "setting": "DIV14", "potency (nM)": "15101", "curve": "inhibitor, partial curve, poor fit"}
{"compound": "C[C@H]1O[C@@H](O[C@H]2[C@@H](O)C[C@H](O[C@H]3[C@@H](O)C[C@H](O[C@H]4CC[C@@]5(C)[C@H](CC[C@@H]6[C@@H]5C[C@@H](O)[C@]5(C)[C@@H](C7=CC(=O)OC7)CC[C@]65O)C4)O[C@@H]3C)O[C@@H]2C)C[C@H](O)[C@@H]1O", "setting": "PC15", "potency (nM)": "125.9", "curve": "inhibitor, full curve"}
{"compound": "C[C@H]1O[C@@H](O[C@H]2[C@@H](O)C[C@H](O[C@H]3[C@@H](O)C[C@H](O[C@H]4CC[C@@]5(C)[C@H](CC[C@@H]6[C@@H]5C[C@@H](O)[C@]5(C)[C@@H](C7=CC(=O)OC7)CC[C@]65O)C4)O[C@@H]3C)O[C@@H]2C)C[C@H](O)[C@@H]1O", "setting": "PC26", "potency (nM)": "756.9", "curve": "inhibitor, full curve"}
{"compound": "CCCSS/C(CCO)=C(/C)N(C=O)Cc1cnc(C)nc1N", "setting": "ICS", "potency (nM)": "10000", "curve": "inhibitor, single point"}
{"compound": "CCCSS/C(CCO)=C(/C)N(C=O)Cc1cnc(C)nc1N", "setting": "7G8", "potency (nM)": "11220", "curve": "inhibitor, single point"}

2 of the entries, repeated:

| Compound | setting | potency (nM) | curve |
|---|---|---|---|
| `Cc1ccc(/C=C2/C(=O)C3(C)CCC2C3(C)C)cc1` (stereo unspecified) | W2 | 19011 | inhibitor, partial curve, poor fit |
| `C[C@H]1O[C@@H](O[C@H]2[C@@H](O)C[C@H](O[C@H]3[C@@H](O)C[C@H](O[C@H]4CC[C@@]5(C)[C@H](CC[C@@H]6[C@@H]5C[C@@H](O)[C@]5(C)[C@@H](C7=CC(=O)OC7)CC[C@]65O)C4)O[C@@H]3C)O[C@@H]2C)C[C@H](O)[C@@H]1O` | PC15 | 125.9 | inhibitor, full curve |

From PubChem BioAssay record AID504749 (NCATS, 2011).